Reference: patent US9611485B2, “Polynucleotide and polypeptide sequences associated with herbicide tolerance” (priority 2010, dated 2017)

Tested on: soybean lines
Assay type: in vivo, Glycine max
Conditions: of 116 elite soybean lines screened

Cc1nn(-c2cc(NS(C)(=O)=O)c(Cl)cc2Cl)c(=O)n1C(F)F [sulfentrazone]
number of soybean lines showing at least some tolerance: 102
number of soybean lines showing high sensitivity: 11

No dose or concentration is given here for some results.
